# Measured values from article doi:10.1101/2025.10.27.684818.
# No constants are given. Whether binding was seen depends on the method and setting. Binding seen in cells or lysates may run through a third protein. Sequences can lack the tags named with a protein.
# Target: T1, LEA5-Cnluc (BH-lea5-Cnluc) (Arabidopsis thaliana) (UniProt P42759)
# T1 sequence: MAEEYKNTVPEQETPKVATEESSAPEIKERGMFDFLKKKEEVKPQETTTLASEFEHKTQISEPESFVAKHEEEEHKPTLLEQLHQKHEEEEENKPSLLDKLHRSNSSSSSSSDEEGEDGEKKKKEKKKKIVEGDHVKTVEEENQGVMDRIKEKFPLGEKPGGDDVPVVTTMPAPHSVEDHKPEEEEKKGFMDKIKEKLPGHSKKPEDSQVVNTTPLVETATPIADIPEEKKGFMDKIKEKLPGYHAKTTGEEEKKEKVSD
# Assay: split reporter
substance,measurement,value
LEA11-Nnluc (ZKlea11-Nnluc) (Arabidopsis thaliana),binding,no binding
